Laboratory results taken from article PMC10771418.
Results are given in words; binding and its absence hold for the method and conditions named. In cells and extracts the contact can be indirect. Some binding calls cover weakened binding; strength is not graded here. Sequences can lack the tags named with a protein.

Target: STING-HA, Q86WV6
Experiment: co-IP; HEK293T transfected with STING-HA and TBK1-MYC with empty vector or VZV gE for 24 h; immunoprecipitation and blots for VZV gE, HA and MYC
Conditions: remark: other sources report otherwise

B1: TBK1-MYC, Q9UHD2 1-729 (enzyme)
chain: MQSTSNHLWLLSDILGQGATANVFRGRHKKTGDLFAIKVFNNISFLRPVDVQMREFEVLKKLNHKNIVKLFAIEEETTTRHKVLIMEFCPCGSLYTVLEEPSNAYGLPESEFLIVLRDVVGGMNHLRENGIVHRDIKPGNIMRVIGEDGQSVYKLTDFGAARELEDDEQFVSLYGTEEYLHPDMYERAVLRKDHQKKYGATVDLWSIGVTFYHAATGSLPFRPFEGPRRNKEVMYKIITGKPSGAISGVQKAENGPIDWSGDMPVSCSLSRGLQVLLTPVLANILEADQEKCWGFDQFFAETSDILHRMVIHVFSLQQMTAHKIYIHSYNTATIFHELVYKQTKIISSNQELIYEGRRLVLEPGRLAQHFPKTTEENPIFVVSREPLNTIGLIYEKISLPKVHPRYDLDGDASMAKAITGVVCYACRIASTLLLYQELMRKGIRWLIELIKDDYNETVHKKTEVVITLDFCIRNIEKTVKVYEKLMKINLEAAELGEISDIHTKLLRLSSSQGTIETSLQDIDSRLSPGGSLADAWAHQEGTHPKDRNVEKLQVLLNCMTEIYYQFKKDKAERRLAYNEEQIHKFDKQKLYYHATKAMTHFTDECVKKYEAFLNKSEEWIRKMLHLRKQLLSLTNQCFDIEEEVSKYQEYTNELQETLPQKMFTASSGIKHTMTPIYPSSNTLVEMTLGMKKLKEEMEGVVKELAENNHILERFGSLTMDGGLRNVDCL
**Q.** How did the binding turn out when B1 was run?
**A.** binds
